Data published in PubChem BioAssay (NCATS).
Where “and” joins values, the source holds several entries; their conditions need not be identical. Identical values can stand only once. The inconclusive results got no clear call from the source; some entries with a clear call stand among them for comparison. Potencies of inconclusive entries are doubtful fits and often do not repeat. Calls of active or inactive are those of the source. The call rests on the fitted dose curve; in most records, active means well fitted curve in the direction sought with a large enough effect; inconclusive means small, poorly fitted or top-dose-only effect, or another doubt; inactive means no such curve, though single readings can be large; an effect the other way counts as inactive or inconclusive.

Amino acid sequences for entries named in this document (tags omitted). A change or cut given only in a name is not applied to a line headed by its entry.
UniProt P00784: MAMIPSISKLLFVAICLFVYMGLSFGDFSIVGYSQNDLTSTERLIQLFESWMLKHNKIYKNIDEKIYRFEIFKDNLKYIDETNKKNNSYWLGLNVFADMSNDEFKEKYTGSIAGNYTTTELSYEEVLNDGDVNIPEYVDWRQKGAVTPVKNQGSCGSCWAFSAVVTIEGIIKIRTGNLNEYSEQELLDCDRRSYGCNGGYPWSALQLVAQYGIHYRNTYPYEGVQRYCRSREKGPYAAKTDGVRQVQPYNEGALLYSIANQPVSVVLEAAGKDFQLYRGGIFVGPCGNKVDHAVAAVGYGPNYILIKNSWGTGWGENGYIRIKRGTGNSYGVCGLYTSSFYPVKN

target: Papain (Carica papaya) (UniProt P00784); assay: Primary qHTS assay for inhibitors of the protease papain (AID 1645873); details: papain Z-FR-AMC cleavage, AMC fluorescence; series mostly up to 49.8 µM; activity change, negative = inhibition: at the top concentration;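 further: papain turnover of Z-FR-AMC read as the AMC fluorescence gain over 10 min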
Potency means the concentration at half of the fitted maximal effect.

SMILES	Potency
NC[C@H](O)c1ccc(O)c(O)c1	inconclusive: 14.1 µM [inhibitor, partial curve]
Cc1cc2c(C(C)C)c(O)c(O)c(C=O)c2c(O)c1-c1c(C)cc2c(C(C)C)c(O)c(O)c(C=O)c2c1O	active: 12.6 µM
CC[C@@]1(O)C(=O)OCc2c1cc1n(c2=O)Cc2cc3c(CN(C)C)c(O)ccc3nc2-1	active: 28.2 µM

test system: not listed separately; assay: Primary qHTS for inhibitors of nuclear receptor binding SET domain protein 2 (NSD2) in an isogenic RCH-ACV NSD2 p.E1099K mutant (9B) (AID 1645876); details: RCH-ACV NSD2 E1099K (9B) viability, CellTiter-Glo, 72 h; series mostly up to 44.9 µM; activity change, negative = viability loss: at the top concentration; further: nearly all actives have a fitted effect of over 70% in size; on activity change, negative = viability loss: on the % scale 0 is the no-effect control and ±100 the full control effect

SMILES	Potency	activity change, negative = viability loss
CCN(CC)CCCN(c1ccccc1)C1Cc2ccccc2C1	inconclusive: 29.9 µM [inhibitor, single point]	
NC(=O)c1ncn([C@@H]2O[C@H](CO)[C@@H](O)[C@H]2O)c1O	inconclusive: 29.9 µM [inhibitor, single point] and inactive	
Oc1c(I)cc(Cl)c2cccnc12	inconclusive: 21.1 µM [inhibitor, single point]	
Cc1c(C)c2c(c(C)c1O)CCC(C)(COc1ccc(CC3SC(=O)NC3=O)cc1)O2 (stereo not drawn)	inconclusive: 26.6 µM [inhibitor, single point] and inconclusive: 20.9 µM [inhibitor, single point]	
CCCCCCCCCCCCCCCC[N+](C)(C)CC	active: 0.335 µM	
O=S1(=O)OC(c2ccc(O)cc2)(c2ccc(O)cc2)c2ccccc21		inactive: -4.9%
CC/C(=C(/CC)c1ccc(O)cc1)c1ccc(O)cc1	inconclusive: 23.7 µM [inhibitor, single point]	
NC[C@H](O)c1ccc(O)c(O)c1	inconclusive: 33.5 µM [inhibitor, single point]	
CC(C)=CCC1C(=O)N(c2ccccc2)N(c2ccccc2)C1=O	active: 16.8 µM	
COc1ccc(NS(=O)(=O)c2ccc(N)cc2)nn1	inconclusive: 33.5 µM [inhibitor, single point]	
CO[C@@]12[C@H](COC(N)=O)C3=C(C(=O)C(C)=C(N)C3=O)N1C[C@@H]1N[C@@H]12	inconclusive: 0.742 µM [inhibitor, full curve, poor fit]	

test system: not listed separately; assay: Primary qHTS for inhibitors of nuclear receptor binding SET domain protein 2 (NSD2) in an RCH-ACV wild type WT cells (2C) (AID 1645877); details: RCH-ACV (leukaemia line) NSD2 WT (2C) viability, CellTiter-Glo, 72 h; activity change, negative = cell killing: at 44.9 µM (top of the series) unless noted; series mostly up to 44.9 µM; further: nearly all actives have a fitted effect of over 70% in size; on activity change, negative = cell killing: on the % scale 0 is the no-effect control and ±100 the full control effect

SMILES	Potency
CCN(CC)CCCN(c1ccccc1)C1Cc2ccccc2C1	inconclusive: 26.6 µM [inhibitor, single point]
NC(=O)c1ncn([C@@H]2O[C@H](CO)[C@@H](O)[C@H]2O)c1O	inconclusive: 29.9 µM [inhibitor, single point] and inconclusive: 10.5 µM [inhibitor, single point]
C=C(CC)C(=O)c1ccc(OCC(=O)O)c(Cl)c1Cl	inconclusive: 26.6 µM [inhibitor, single point]
Cc1c(C)c2c(c(C)c1O)CCC(C)(COc1ccc(CC3SC(=O)NC3=O)cc1)O2 (stereo not drawn)	inconclusive: 26.6 µM [inhibitor, single point] and inconclusive: 23.5 µM [inhibitor, partial curve]
COc1cccc2c1C(=O)c1c(O)c3c(c(O)c1C2=O)C[C@@](O)(C(C)=O)C[C@@H]3O[C@H]1C[C@H](N)[C@H](O)[C@H](C)O1	inconclusive: 0.0132 µM [inhibitor, full curve, poor fit]
CCCCCCCCCCCCCCCC[n+]1ccccc1	active: 0.335 µM
Cc1ccc(O)c2ncccc12	inconclusive: 29.9 µM [inhibitor, single point]
COc1cccc2c1C(=O)c1c(O)c3c(c(O)c1C2=O)C[C@@](O)(C(=O)CO)C[C@@H]3O[C@H]1C[C@H](N)[C@H](O)[C@H](C)O1	active: 150 nM and active: 26.3 nM
CO[C@@]12[C@H](COC(N)=O)C3=C(C(=O)C(C)=C(N)C3=O)N1C[C@@H]1N[C@@H]12	inactive and inconclusive: 833 nM [inhibitor, full curve, poor fit]
